The record followed here is US11571459B2, “Methods for treating cancer using PS-targeting antibodies with immuno-oncology agents” (ONCXERNA THERAPEUTICS, INC., priority 2017, dated 2023).

The test system of this series is total β2GPI. In words: Assay for total β2GPI (capture and detection anti-β2GPI antibodies). The following applies: for concentration read out in total β2GPI assay: β2GPI from human plasma; for Conc. (ng/mL) read out in Total β2GPI Assay: commercial capture and detection anti-β2GPI antibodies, nicked vs intact β2GPI samples. The class given is binding, human.

B1: β2GPI: plasmin-free (intact) β2GPI purified from human plasma or recombinant (protein)
chain: GRTCPKPDDLPFSTVVPLKTFYEPGEEITYSCKPGYVSRGGMRKFICPLTGLWPINTLKCTPRVCPFAGILENGAVRYTTFEYPNTISFSCNTGFYLNGADSAKCTEEGKWSPELPVCAPIICPPPSIPTFATLRVYKPSAGNNSLYRDTAVFECLPQHAMFGNDTITCTTHGNWTKLPECREVKCPFPSRPDNGFVNYPAKPTLYYKDKATFGCHDGYSLDGPEEIECTKLGNWSAMPSCKASCKVPVKKATVVYQGERVKIQEKFKNGMLHGDKVSFFCKNKEKKCSYTEDAQCIDGTIEVPKCFKEHSSLAFWKTDASDVKPC
Regarding B1, the “concentration read out in total β2GPI assay” value was “approximately 141 ng/mL”.

B2: Recombinant Plasmin-free β2GPI (protein, UniProt P02749 20-345, looked up)
Beta-2-glycoprotein 1: B1 chain
modifications: recombinant, plasmin-free
In the case of B2, the “Conc. (ng/mL) read out in Total β2GPI Assay” value stood at 140.90 ng/mL.

B3: plasmin-treated β2GPI: β2GPI treated with plasmin, majority nicked, does not bind PS (protein)
chain: B1 chain
With B3, the “concentration read out in total β2GPI assay” value is 104 ng/mL.

B4: Human Plasmin-free β2GPI (protein, UniProt P02749 20-345, looked up)
Beta-2-glycoprotein 1: B1 chain
modifications: plasmin-free
Take B4: the “Conc. (ng/mL) read out in Total β2GPI Assay” value stood at 140.90 ng/mL.
